Assay results from PMC13483542.
These are yes or no findings as the source states them, for the method shown. In cells and extracts the contact can be indirect. Some entries that bind do so weakly or less than the wild type.

Protein sequences, listed by entry. Tags and fused reporters are not part of them. Residues count along the entry.
UniProt P01024, residues 672-748: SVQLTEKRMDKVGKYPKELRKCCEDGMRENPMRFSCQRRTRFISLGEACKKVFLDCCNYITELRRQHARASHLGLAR

Target: T1, C3aR (human (endogenous in iMG)) (UniProt Q16581)
T1 sequence: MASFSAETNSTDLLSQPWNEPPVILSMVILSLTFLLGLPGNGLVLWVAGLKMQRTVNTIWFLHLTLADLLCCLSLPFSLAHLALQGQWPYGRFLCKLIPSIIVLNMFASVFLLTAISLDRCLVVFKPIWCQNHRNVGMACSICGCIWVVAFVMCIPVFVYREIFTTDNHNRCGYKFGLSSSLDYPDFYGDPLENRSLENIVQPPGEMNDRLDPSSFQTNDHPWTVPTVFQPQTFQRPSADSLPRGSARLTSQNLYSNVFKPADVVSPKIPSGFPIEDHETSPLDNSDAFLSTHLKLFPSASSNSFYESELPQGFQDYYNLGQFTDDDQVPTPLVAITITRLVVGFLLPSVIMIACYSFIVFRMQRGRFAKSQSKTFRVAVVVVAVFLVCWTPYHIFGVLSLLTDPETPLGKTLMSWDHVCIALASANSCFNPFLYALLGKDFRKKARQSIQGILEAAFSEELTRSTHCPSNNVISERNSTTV
Experiment: proximity ligation; matched ligand-receptor positive control on iMG; source of C3a and the antibodies not told; fluorescent puncta per cell

For “C3a (from UniProt P01024 672-748) (ligand)”, which binding is on record?
The binding was “binds”.
